{"source": "the supplement of paper PMC4604168 (melanoma cell lines)", "note": "Some of the results follow. Many values rest on one well or one pass, so single values are uncertain.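 Cells were imaged in 1,536-well plates, and nuclei stained with an antibody against cleaved PARP were counted against all DNA-stained nuclei to give the apoptosis fraction. Screening doses were chosen to leave most cells alive, and resting and induced cleaved-PARP levels differ strongly between cell lines.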", "data": [{"tested_on": "UACC257", "experiment": "cleaved PARP positive nuclei fraction relative to DMSO control; melanoma cells; higher = more apoptosis", "details": "library dose: low library concentration; 72 h", "units": {"cleaved PARP positive nuclei fraction": "%"}, "values": [{"smiles": "C=C(c1ccc(C(=O)O)cc1)c1cc2c(cc1C)C(C)(C)CCC2(C)C", "note": "[Bexarotene] + O=C(Nc1ccccc1)c1cc([N+](=O)[O-])ccc1Cl [GW9662] (first compound 2 µM, partner dose 2 µM)", "cleaved PARP positive nuclei fraction": 23.7}, {"smiles": "CNC(=O)c1cc(Oc2ccc(NC(=O)Nc3ccc(Cl)c(C(F)(F)F)c3)cc2)ccn1", "note": "[sorafenib] + COC(=O)c1sccc1S(=O)(=O)Nc1ccc(Nc2ccccc2)cc1OC [GSK0660] (first compound 0.4 µM, partner dose 1 µM)", "cleaved PARP positive nuclei fraction": 141}, {"smiles": "CNC(=O)c1cc(Oc2ccc(NC(=O)Nc3ccc(Cl)c(C(F)(F)F)c3)cc2)ccn1", "note": "[sorafenib] + CCCCCCCCCCCC1=C(O)C(=O)C=C(O)C1=O [Embelin] (first compound 0.4 µM, partner dose 1.2 µM)", "cleaved PARP positive nuclei fraction": 94.1}, {"smiles": "CS(=O)(=O)CCNCc1ccc(-c2ccc3ncnc(Nc4ccc(OCc5cccc(F)c5)c(Cl)c4)c3c2)o1", "note": "[lapatinib] + CN(C)S(=O)(=O)c1ccc2c(c1)/C(=C/c1cc3c([nH]1)CCCC3)C(=O)N2 [SU6656] (first compound 0.8 µM, partner dose 0.4 µM)", "cleaved PARP positive nuclei fraction": 55.5}, {"smiles": "C[C@@H](Oc1cc(-c2cnn(C3CCNCC3)c2)cnc1N)c1c(Cl)ccc(F)c1Cl", "note": "[Crizotinib] + CCCCCCCCCCCC1=C(O)C(=O)C=C(O)C1=O [Embelin] (first compound 0.2 µM, partner dose 1.2 µM)", "cleaved PARP positive nuclei fraction": 234}, {"smiles": "Nc1nc(F)nc2c1ncn2[C@@H]1O[C@H](CO)[C@@H](O)[C@@H]1O", "note": "[fludarabine] + Cc1cc(N2CCOCC2)cc2[nH]c(-c3c(NC[C@@H](O)c4cccc(Cl)c4)cc[nH]c3=O)nc12 [BMS536924] (first compound 0.2 µM, partner dose 0.2 µM)", "cleaved PARP positive nuclei fraction": 289}, {"smiles": "Cc1cc(Nc2cc(N3CCN(C)CC3)nc(/C=C/c3ccccc3)n2)n[nH]1", "note": "+ COc1ccc(COc2ccc(Cc3cnc(N)nc3N)cc2OC)cc1 [GW2580] (first compound 0.04 µM, partner dose 1 µM)", "cleaved PARP positive nuclei fraction": 135}, {"smiles": "CNC(=O)c1cc(Oc2ccc(NC(=O)Nc3ccc(Cl)c(C(F)(F)F)c3)cc2)ccn1", "note": "[sorafenib] + NCC(=O)Nc1ccc(-n2nc(C(F)(F)F)cc2-c2ccc3c(ccc4ccccc43)c2)cc1 [OSU03012] (first compound 0.4 µM, partner dose 1 µM)", "cleaved PARP positive nuclei fraction": 51.8}, {"smiles": "Cc1cc(Nc2cc(N3CCN(C)CC3)nc(/C=C/c3ccccc3)n2)n[nH]1", "note": "+ OCCn1cc(-c2cnc3nnn(Cc4ccc5ncccc5c4)c3n2)cn1 [PF04217903] (first compound 0.04 µM, partner dose 1 µM)", "cleaved PARP positive nuclei fraction": 123}, {"smiles": "Nc1nc(F)nc2c1ncn2[C@@H]1O[C@H](CO)[C@@H](O)[C@@H]1O", "note": "[fludarabine] + CCc1ccc(CCOc2ccc(CC3SC(=O)NC3=O)cc2)nc1 [pioglitazone] (first compound 0.2 µM, partner dose 2 µM)", "cleaved PARP positive nuclei fraction": 63.4}, {"smiles": "CS(=O)(=O)CCNCc1ccc(-c2ccc3ncnc(Nc4ccc(OCc5cccc(F)c5)c(Cl)c4)c3c2)o1", "note": "[lapatinib] + OCCn1cc(-c2cnc3nnn(Cc4ccc5ncccc5c4)c3n2)cn1 [PF04217903] (first compound 0.8 µM, partner dose 1 µM)", "cleaved PARP positive nuclei fraction": 217}, {"smiles": "CNC(=O)c1cc(Oc2ccc(NC(=O)Nc3ccc(Cl)c(C(F)(F)F)c3)cc2)ccn1", "note": "[sorafenib] + Cc1cc([N+](=O)[O-])ccc1NS(=O)(=O)c1cc(Cl)ccc1Cl [FH535] (first compound 0.4 µM, partner dose 1 µM)", "cleaved PARP positive nuclei fraction": 95.2}, {"smiles": "CN1CCN(c2ccc3nc(-c4c(N)c5c(F)cccc5[nH]c4=O)[nH]c3c2)CC1", "note": "[Dovitinib] + COc1ccc2c(c1)CCC1C2CCC2(C)C(NCCCCCCN3C(=O)C=CC3=O)CCC12 [U73122] (first compound 0.1 µM, partner dose 0.4 µM)", "cleaved PARP positive nuclei fraction": 204}, {"smiles": "O=C(O)[C@@H]1[O][Sb](=[O])([O][Sb]2(=[O])[O][C@H]([C@H](O)CO)[C@H](O)[C@H](C(=O)O)[O]2)[O][C@H]([C@H](O)CO)[C@@H]1O", "note": "(stereo not given in full) [stibogluconate] + COc1cc(N2CCC(N3CCN(C)CC3)CC2)ccc1Nc1ncc(Cl)c(Nc2ccccc2S(=O)(=O)C(C)C)n1 [NVP-TAE684] (first compound 2 µM, partner dose 0.08 µM)", "cleaved PARP positive nuclei fraction": 109}, {"smiles": "CCCS(=O)(=O)Nc1ccc(F)c(C(=O)c2c[nH]c3ncc(Cl)cc23)c1F", "note": "+ N#Cc1c(O)c2c(-c3ccc(-c4ccccc4O)cc3)csc2[nH]c1=O [A769662] (first compound 0.08 µM, partner dose 2 µM)", "cleaved PARP positive nuclei fraction": 155}, {"smiles": "CN1CCN(c2ccc3nc(-c4c(N)c5c(F)cccc5[nH]c4=O)[nH]c3c2)CC1", "note": "[Dovitinib] + Cc1cc(N2CCOCC2)cc2[nH]c(-c3c(NC[C@@H](O)c4cccc(Cl)c4)cc[nH]c3=O)nc12 [BMS536924] (first compound 0.1 µM, partner dose 0.2 µM)", "cleaved PARP positive nuclei fraction": 119}, {"smiles": "C[C@@H](Oc1cc(-c2cnn(C3CCNCC3)c2)cnc1N)c1c(Cl)ccc(F)c1Cl", "note": "[Crizotinib] + COc1ccc(-c2ccc3c(N4CCOCC4)nc(N4C[C@@H](C)O[C@@H](C)C4)nc3n2)cc1CO [KU0063794] (first compound 0.2 µM, partner dose 0.02 µM)", "cleaved PARP positive nuclei fraction": 55.4}, {"smiles": "O=C(O)[C@@H]1[O][Sb](=[O])([O][Sb]2(=[O])[O][C@H]([C@H](O)CO)[C@H](O)[C@H](C(=O)O)[O]2)[O][C@H]([C@H](O)CO)[C@@H]1O", "note": "(stereo not given in full) [stibogluconate] + O=C(O)c1ccc(-c2c[nH]c3ncc(-c4ccccc4)cc23)cc1C1CCCC1 [GSK650394] (first compound 2 µM, partner dose 0.16 µM)", "cleaved PARP positive nuclei fraction": 102}, {"smiles": "Cn1c(=O)n(-c2ccc(C(C)(C)C#N)cc2)c2c3cc(-c4cnc5ccccc5c4)ccc3ncc21", "note": "+ CCCCCCCCCCCC1=C(O)C(=O)C=C(O)C1=O [Embelin] (first compound 0.004 µM, partner dose 1.2 µM)", "cleaved PARP positive nuclei fraction": 366}, {"smiles": "CN1CCN(c2ccc3nc(-c4c(N)c5c(F)cccc5[nH]c4=O)[nH]c3c2)CC1", "note": "[Dovitinib] + NCC(=O)Nc1ccc(-n2nc(C(F)(F)F)cc2-c2ccc3c(ccc4ccccc43)c2)cc1 [OSU03012] (first compound 0.1 µM, partner dose 1 µM)", "cleaved PARP positive nuclei fraction": 135}, {"smiles": "C=C(c1ccc(C(=O)O)cc1)c1cc2c(cc1C)C(C)(C)CCC2(C)C", "note": "[Bexarotene] + Cc1cc([N+](=O)[O-])ccc1NS(=O)(=O)c1cc(Cl)ccc1Cl [FH535] (first compound 2 µM, partner dose 1 µM)", "cleaved PARP positive nuclei fraction": 47.3}, {"smiles": "Cc1cc(Nc2cc(N3CCN(C)CC3)nc(/C=C/c3ccccc3)n2)n[nH]1", "note": "+ COC(=O)c1sccc1S(=O)(=O)Nc1ccc(Nc2ccccc2)cc1OC [GSK0660] (first compound 0.04 µM, partner dose 1 µM)", "cleaved PARP positive nuclei fraction": 113}, {"smiles": "CC(C)C[C@H](NC(=O)[C@H](Cc1ccccc1)NC(=O)c1cnccn1)B(O)O", "note": "[Bortezomib] + Cc1cc([N+](=O)[O-])ccc1NS(=O)(=O)c1cc(Cl)ccc1Cl [FH535] (first compound 0.001 µM, partner dose 1 µM)", "cleaved PARP positive nuclei fraction": 53.9}, {"smiles": "CC(C)C[C@H](NC(=O)[C@H](Cc1ccccc1)NC(=O)c1cnccn1)B(O)O", "note": "[Bortezomib] + O=C(CCCCCCC(=O)Nc1ccccc1)NO [vorinostat] (first compound 0.001 µM, partner dose 0.08 µM)", "cleaved PARP positive nuclei fraction": 123}, {"smiles": "Nc1ncn([C@H]2C[C@H](O)[C@@H](CO)O2)c(=O)n1", "note": "[decitabine] + COc1ccc2c(c1)CCC1C2CCC2(C)C(NCCCCCCN3C(=O)C=CC3=O)CCC12 [U73122] (first compound 0.1 µM, partner dose 0.4 µM)", "cleaved PARP positive nuclei fraction": 81.7}]}]}
